Some results come without the dose or concentration used.
Tested on: patients with uncontrolled moderate-to-severe asthma
Experiment: Phase 3 clinical trial, as-needed albuterol-budesonide fixed dose combination vs. albuterol alone: efficacy and study medication use
Type: in vivo, human

## CC(C)(C)NCC(O)c1ccc(O)c(CO)c1 (centres unmarked) [albuterol 180-μg, 4-(2-(tert-butylamino)-1-hydroxyethyl)-2-(hydroxymethyl) phenol]
human, in vivo
  Average daily as-needed use: 2.8 inhalations per day
One dose = 2 inhalations
  doses of study medication per day: ~1.4 doses of study medication per day

Reference: patent US20250345292A1, “COMBINATION OF ALBUTEROL AND BUDESONIDE FOR THE TREATMENT OF ASTHMA” (priority 2022, published 2025)
